Among the data in PMC5066615 are binding values, retold here.

By UniProt entry, the sequences of proteins in these tests, tags left out.
UniProt P04150: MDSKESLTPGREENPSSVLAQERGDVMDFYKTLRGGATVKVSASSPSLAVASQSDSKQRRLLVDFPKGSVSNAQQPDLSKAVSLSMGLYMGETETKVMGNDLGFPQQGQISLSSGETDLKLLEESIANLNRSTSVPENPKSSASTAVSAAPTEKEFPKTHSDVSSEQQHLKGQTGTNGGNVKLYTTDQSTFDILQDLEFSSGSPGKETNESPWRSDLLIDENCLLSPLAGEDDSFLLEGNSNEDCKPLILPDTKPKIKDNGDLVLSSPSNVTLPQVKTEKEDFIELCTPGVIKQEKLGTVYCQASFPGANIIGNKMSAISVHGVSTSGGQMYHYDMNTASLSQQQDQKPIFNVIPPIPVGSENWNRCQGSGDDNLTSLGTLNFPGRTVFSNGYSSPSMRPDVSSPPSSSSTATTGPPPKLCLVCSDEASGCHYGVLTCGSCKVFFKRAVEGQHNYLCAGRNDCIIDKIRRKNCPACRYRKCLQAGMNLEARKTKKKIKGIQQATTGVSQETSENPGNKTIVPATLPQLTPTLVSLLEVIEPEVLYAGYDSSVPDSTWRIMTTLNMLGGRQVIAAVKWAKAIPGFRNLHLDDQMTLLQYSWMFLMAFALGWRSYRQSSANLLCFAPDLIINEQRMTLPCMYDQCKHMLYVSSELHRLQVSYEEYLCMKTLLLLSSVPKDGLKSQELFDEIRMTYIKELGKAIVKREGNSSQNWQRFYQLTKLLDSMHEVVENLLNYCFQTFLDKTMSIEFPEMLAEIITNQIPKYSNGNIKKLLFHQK
UniProt P67809: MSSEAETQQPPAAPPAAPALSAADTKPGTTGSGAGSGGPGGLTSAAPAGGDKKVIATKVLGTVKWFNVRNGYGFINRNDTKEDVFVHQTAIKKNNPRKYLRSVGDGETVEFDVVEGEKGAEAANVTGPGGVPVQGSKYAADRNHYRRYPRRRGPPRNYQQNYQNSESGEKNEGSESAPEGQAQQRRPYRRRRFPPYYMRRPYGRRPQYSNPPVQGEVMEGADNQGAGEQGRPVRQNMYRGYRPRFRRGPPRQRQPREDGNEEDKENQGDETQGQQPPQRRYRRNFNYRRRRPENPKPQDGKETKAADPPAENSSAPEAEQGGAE

Experiment [1] concerns the target glucocorticoid receptor (human (endogenous in HEK293T)) (UniProt P04150). Kind of experiment: co-IP; immunoprecipitation of endogenous GR with α-GR antibody (control rabbit IgG) from HEK293T extracts; cells treated with Dex for 1 h (also compared without Dex); extracts treated with RNase A; cells also depleted of YBX1, HRSP12, UPF1 or PNRC2 by siRNA; Western blot.

The target in the next experiment is T1, Flag-HRSP12 wild type (UniProt P52758).
T1 sequence: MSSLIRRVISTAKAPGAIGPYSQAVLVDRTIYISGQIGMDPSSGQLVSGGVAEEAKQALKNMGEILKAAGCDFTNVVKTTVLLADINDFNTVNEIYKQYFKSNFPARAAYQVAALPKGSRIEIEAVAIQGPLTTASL
Kind of experiment: co-IP; immunoprecipitation with α-Flag antibody from extracts of cells transiently expressing Flag-HRSP12 wild type or variants; endogenous partners detected by Western blot.

For experiment [2], the target named is T2, MYC-UPF1^R wild type, Q92900.
T2 chain: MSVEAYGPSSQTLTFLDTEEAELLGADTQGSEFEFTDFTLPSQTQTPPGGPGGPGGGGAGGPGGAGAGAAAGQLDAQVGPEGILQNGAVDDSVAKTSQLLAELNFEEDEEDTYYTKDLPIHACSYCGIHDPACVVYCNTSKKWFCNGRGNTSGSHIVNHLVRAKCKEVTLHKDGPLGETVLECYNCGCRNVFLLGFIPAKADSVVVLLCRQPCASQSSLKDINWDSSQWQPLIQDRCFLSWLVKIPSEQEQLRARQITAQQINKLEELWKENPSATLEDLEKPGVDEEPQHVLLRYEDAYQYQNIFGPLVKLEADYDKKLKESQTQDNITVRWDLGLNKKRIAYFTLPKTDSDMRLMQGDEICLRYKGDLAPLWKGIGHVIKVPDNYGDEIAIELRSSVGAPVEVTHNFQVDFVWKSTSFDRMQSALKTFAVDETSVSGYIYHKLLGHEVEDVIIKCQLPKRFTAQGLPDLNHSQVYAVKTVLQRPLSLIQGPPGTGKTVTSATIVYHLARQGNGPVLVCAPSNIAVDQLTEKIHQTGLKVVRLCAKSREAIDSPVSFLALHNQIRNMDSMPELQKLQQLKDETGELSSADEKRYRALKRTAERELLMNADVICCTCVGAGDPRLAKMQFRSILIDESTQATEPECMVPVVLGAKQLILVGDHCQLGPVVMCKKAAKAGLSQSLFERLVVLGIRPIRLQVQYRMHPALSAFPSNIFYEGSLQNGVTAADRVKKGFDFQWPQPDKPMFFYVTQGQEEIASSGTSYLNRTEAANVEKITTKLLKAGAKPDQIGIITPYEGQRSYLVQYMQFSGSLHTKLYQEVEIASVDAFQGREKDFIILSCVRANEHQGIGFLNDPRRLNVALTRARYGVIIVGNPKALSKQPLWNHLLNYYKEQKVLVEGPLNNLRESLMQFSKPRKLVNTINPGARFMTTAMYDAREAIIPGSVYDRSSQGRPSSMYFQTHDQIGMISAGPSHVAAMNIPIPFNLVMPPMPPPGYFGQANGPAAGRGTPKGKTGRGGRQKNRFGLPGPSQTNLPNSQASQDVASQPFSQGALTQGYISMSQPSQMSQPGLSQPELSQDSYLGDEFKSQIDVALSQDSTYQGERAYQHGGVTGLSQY
Description: co-IP; HEK293T cells cotransfected with MS2-HA-PNRC2 and MYC-UPF1^R wild type or Δ(1–72); immunoprecipitation with α-MYC antibody (control mouse IgG); Western blot. The conditions noted are these: remark: other sources report otherwise.

Results are given in words; binding and its absence hold for the method and conditions named. In cells and extracts the contact can be indirect. Some binding calls cover weakened binding; strength is not graded here. For some assays here: Where a sequence is shown, tags or fusion partners need not be part of it.

For the molecule “proline-rich nuclear receptor coregulatory protein 2 (from UniProt Q9NPJ4 1-139)”, the binding entry in experiment [1] is “binds”. Consider “Y-box-binding protein 1 (from UniProt P67809 1-324)”, for which, in the experiment with Flag-HRSP12 wild type, the binding result is reported as “binds”.

B1: MS2-HA-PNRC2, Q9NPJ4 1-139 (protein)
chain: MGGGERYNIPAPQSRNVSKNQQQLNRQKTKEQNSQMKIVHKKKERGHGYNSSAAAWQAMQNGGKNKNFPNNQSWNSSLSGPRLLFKSQANQNYAGAKFSEPPSPSVLPKPPSHWVPVSFNPSDKEIMTFQLKTLLKVQV
Regarding B1, the binding entry in experiment [2] is on record as “binds”.

B2: upstream frameshift 1 (protein, UniProt Q92900 1-1129)
chain: MSVEAYGPSSQTLTFLDTEEAELLGADTQGSEFEFTDFTLPSQTQTPPGGPGGPGGGGAGGPGGAGAGAAAGQLDAQVGPEGILQNGAVDDSVAKTSQLLAELNFEEDEEDTYYTKDLPIHACSYCGIHDPACVVYCNTSKKWFCNGRGNTSGSHIVNHLVRAKCKEVTLHKDGPLGETVLECYNCGCRNVFLLGFIPAKADSVVVLLCRQPCASQSSLKDINWDSSQWQPLIQDRCFLSWLVKIPSEQEQLRARQITAQQINKLEELWKENPSATLEDLEKPGVDEEPQHVLLRYEDAYQYQNIFGPLVKLEADYDKKLKESQTQDNITVRWDLGLNKKRIAYFTLPKTDSGNEDLVIIWLRDMRLMQGDEICLRYKGDLAPLWKGIGHVIKVPDNYGDEIAIELRSSVGAPVEVTHNFQVDFVWKSTSFDRMQSALKTFAVDETSVSGYIYHKLLGHEVEDVIIKCQLPKRFTAQGLPDLNHSQVYAVKTVLQRPLSLIQGPPGTGKTVTSATIVYHLARQGNGPVLVCAPSNIAVDQLTEKIHQTGLKVVRLCAKSREAIDSPVSFLALHNQIRNMDSMPELQKLQQLKDETGELSSADEKRYRALKRTAERELLMNADVICCTCVGAGDPRLAKMQFRSILIDESTQATEPECMVPVVLGAKQLILVGDHCQLGPVVMCKKAAKAGLSQSLFERLVVLGIRPIRLQVQYRMHPALSAFPSNIFYEGSLQNGVTAADRVKKGFDFQWPQPDKPMFFYVTQGQEEIASSGTSYLNRTEAANVEKITTKLLKAGAKPDQIGIITPYEGQRSYLVQYMQFSGSLHTKLYQEVEIASVDAFQGREKDFIILSCVRANEHQGIGFLNDPRRLNVALTRARYGVIIVGNPKALSKQPLWNHLLNYYKEQKVLVEGPLNNLRESLMQFSKPRKLVNTINPGARFMTTAMYDAREAIIPGSVYDRSSQGRPSSMYFQTHDQIGMISAGPSHVAAMNIPIPFNLVMPPMPPPGYFGQANGPAAGRGTPKGKTGRGGRQKNRFGLPGPSQTNLPNSQASQDVASQPFSQGALTQGYISMSQPSQMSQPGLSQPELSQDSYLGDEFKSQIDVALSQDSTYQGERAYQHGGVTGLSQY
On to B2, for which the binding entry (with Flag-HRSP12 wild type; in experiment [1]) was “binds” in each case.
